According to patent US20060153925A1, “Novel solid pharmaceutical composition comprising amisulpride” (Sanofi-Aventis, priority 2003, published 2006):

Test: bitterness of amisulpride quantified by a panel of 6 individuals
Settings: tablet
Method: In order to be able to quantify the magnitude of this bitterness, a panel of 6 individuals made it possible to find that the bitterness of amisulpride is detected with a tablet containing 1 mg of amisulpride that can be released in the mouth. This bitterness becomes unacceptable when the tablet contains 8 mg of amisulpride that can be released in the mouth.

With CCN1CCCC1CNC(=O)c1cc(S(=O)(=O)CC)c(N)cc1OC (racemic) [amisulpride, 4-amino-N-[(1-ethyl-2-pyrrolidin-yl)methyl]-5-(ethylsulfonyl)-2-methoxybenzamide] the “amount of amisulpride releasable in the mouth at which bitterness becomes unacceptable” value was 8 mg and the “amount of amisulpride releasable in the mouth at which bitterness is detected” value was 1 mg.
